Measured values reported in paper doi:10.1101/2023.06.13.544862.
These are yes or no findings as the source states them, for the method shown. Some results given as binding are weak or reduced against the parent protein; the word gives no strength. Where a sequence is shown, tags or fusion partners need not be part of it.

Sequences of proteins named here, by UniProt entry; tags and fusion partners are left off.
UniProt O75530: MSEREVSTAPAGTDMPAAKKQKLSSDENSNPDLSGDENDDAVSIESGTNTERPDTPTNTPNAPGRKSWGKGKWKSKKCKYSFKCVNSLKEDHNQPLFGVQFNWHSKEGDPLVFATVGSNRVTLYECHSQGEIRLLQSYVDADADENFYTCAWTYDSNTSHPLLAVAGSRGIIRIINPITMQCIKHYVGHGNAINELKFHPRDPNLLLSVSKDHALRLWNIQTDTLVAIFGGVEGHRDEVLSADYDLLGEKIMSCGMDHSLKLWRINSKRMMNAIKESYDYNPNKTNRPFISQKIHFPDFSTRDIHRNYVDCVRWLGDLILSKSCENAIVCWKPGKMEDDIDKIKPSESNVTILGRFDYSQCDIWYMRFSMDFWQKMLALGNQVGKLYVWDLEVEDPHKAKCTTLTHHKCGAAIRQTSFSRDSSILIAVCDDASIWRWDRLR

Key:
Test in all cases: pull-down
[1] = target: T1, GST-tagged NOP16 67-88 (human) (UniProt Q9Y3C1)
T1 sequence: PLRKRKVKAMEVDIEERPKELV

[2] = target: T2, GST-tagged NOP16 39-176 (human) (UniProt Q9Y3C1)
T2 sequence: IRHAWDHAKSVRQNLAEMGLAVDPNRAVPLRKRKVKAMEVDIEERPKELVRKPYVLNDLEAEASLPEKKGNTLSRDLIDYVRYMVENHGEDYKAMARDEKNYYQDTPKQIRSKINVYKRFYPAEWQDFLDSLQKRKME

[3] = target: T3, GST-tagged full-length NOP16 (human) (UniProt Q9Y3C1)
T3 sequence: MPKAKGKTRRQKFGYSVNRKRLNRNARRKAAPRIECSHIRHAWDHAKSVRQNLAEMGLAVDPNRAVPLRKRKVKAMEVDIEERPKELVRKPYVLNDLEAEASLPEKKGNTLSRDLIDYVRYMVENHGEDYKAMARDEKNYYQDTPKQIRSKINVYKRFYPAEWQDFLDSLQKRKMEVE

[4] = target: T4, GST-tagged NOP16 23-44 (human) (UniProt Q9Y3C1)
T4 sequence: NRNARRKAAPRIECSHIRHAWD

[5] = target: T5, GST-tagged NOP16 1-38 (human) (UniProt Q9Y3C1)
T5 sequence: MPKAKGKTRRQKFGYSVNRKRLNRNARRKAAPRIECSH

[6] = target: T6, GST-tagged NOP16 1-22 (human) (UniProt Q9Y3C1)
T6 sequence: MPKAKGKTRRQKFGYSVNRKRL

Measured: binding

EED pulled down by GST-tagged NOP16 constructs (from UniProt O75530 1-441)
binds: [1] | [2] | [3] | [4] | [5] | [6]
